PubChem BioAssay AID652272 | Drosophila RNAi Screening Center | 2013
The deposit covers about 21,000 reagents; this is an unselected part of those with a known target gene and a result. Of all reagents, 503 (2.4%) were called active. 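Raw plate light values, not normalised; calls rest on replicate z-scores that were not deposited; hits include reporter decreases as well as increases.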 Entries without a mark were called inactive. Reagent sequences are not shown. Not given: the amount of reagent, the time to read-out.

Assay: 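Genes whose knock-down decreases or increases Hedgehog reporter output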 (primary screen)
Cells: Drosophila clone 8 (Cl8) cells
Reagents: long dsRNA against Drosophila genes
Read-out: 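Plate reader light from a firefly reporter under a ptc promoter fragment that responds to Hedgehog, with Renilla light as transfection reference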
Scale: firefly Hh reporter signal: higher = more ptc reporter light; Renilla reference signal: higher = more Renilla control light
Active means: 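Hit when the z-score averaged over two replicates is under -2 or over +3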
Meaning of the calls: active = hit: reporter lowered or raised; inactive = not a hit

The first 2 entries as a preview:
target gene	amplicon	firefly Hh reporter signal, replicate 1	firefly Hh reporter signal, replicate 2	Renilla reference signal, replicate 1	Renilla reference signal, replicate 2
Invadolysin (GeneID 49580)	DRSC15527	83899	94080	2454	3146
CG15914 (GeneID 32542)	DRSC19739	52858	1.51e5	1686	7190

Results, from the first entry:
target gene	amplicon	firefly Hh reporter signal, replicate 1	firefly Hh reporter signal, replicate 2	Renilla reference signal, replicate 1	Renilla reference signal, replicate 2
Invadolysin (GeneID 49580)	DRSC15527	83899	94080	2454	3146
CG15914 (GeneID 32542)	DRSC19739	52858	1.51e5	1686	7190
Dlip1 (GeneID 53580)	DRSC18460	1.25e5	2.58e5	4006	9056
vn (GeneID 38657)	DRSC11408	40581	37957	3184	2848
Sirt6 (GeneID 41254)	DRSC16010	40483	83104	1184	2512
CG31741 (GeneID 35079)	DRSC02887	86739	73312	2250	6464
kra (GeneID 40680)	DRSC12320	82854	49552	3387	2163
CG7006 (GeneID 42963)	DRSC16169	92385	47314	4771	2633
CG32563 (GeneID 32706)	DRSC19934	63977	2.36e5	1728	8946
CG42566 (GeneID 8674120)	DRSC03949	1.60e5	2.41e5	4093	11686
Ntf-2 (GeneID 33078)	DRSC20552	1.19e5	1.16e5	3056	2629
Etfb (GeneID 43515)	DRSC16324	1.12e5	1.00e5	2480	2939
Naa40 (GeneID 43500)	DRSC16265	1.00e5	1.01e5	3451	2724
Z600 (GeneID 39673)	DRSC11317	1.50e5		5398	3751
CG5909 (GeneID 43274)	DRSC15914	69696	88084	2540	2210
miple1 (GeneID 38047)	DRSC08722	1.17e5	56965	4464	4153
Skel (GeneID 3772559)	DRSC14905	56211	1.03e5	1932	2784
Skel (GeneID 3772559)	DRSC14906	85715	58376	3717	2549
XNP (GeneID 43080)	DRSC15594	62214	1.07e5	1059	3101
mRpL22 (GeneID 32662)	DRSC19915	70680	1.91e5	2592	7462
CG17650 (GeneID 33358)	DRSC00510	96955	78419	2244	2023
dlg1 (GeneID 32083)	DRSC18895	3.34e5	90877	19275	2260
dlg1 (GeneID 32083)	DRSC18896	4.26e5	1.64e5	22480	3383
dlg1 (GeneID 32083)	DRSC19767	97130	3.16e5	4203	12272
dlg1 (GeneID 32083)	DRSC20324	1.49e5	86061	3574	2328
CG41020 (retired record) (GeneID 5740564)	DRSC20866	5.89e5	2.24e5	34001	5219
CG12912 (GeneID 36075)	DRSC06227	13835 (active)	4504	592	828
CG4073 (GeneID 41284)	DRSC15542	79841	1.08e5	2369	3078
Mpcp1 (GeneID 37297)	DRSC07337	86533	64173	2067	4480
CG42729 (GeneID 3885667)	DRSC10236	1.52e5		6120	4520
Arfip (GeneID 41353)	DRSC15179	1.24e5	1.07e5	4938	3747
lncRNA:CR43242 (GeneID 12798537)	DRSC03827	75456	51282	2584	4634
CG17169 (GeneID 3354995)	DRSC20905	57461	1.96e5	1784	11373
mRpL9 (GeneID 41859)	DRSC15678	58637	85079	1418	1810
trk (GeneID 34376)	DRSC03625	81056	41355	2181	4512
Tsp42A (GeneID 35515)	DRSC04862	94112	76429	1780	5769
CG13630 (GeneID 42943)	DRSC14631	93293	1.05e5	4160	4249
CG43187 (GeneID 12798317)	DRSC05607	1.95e5	3.46e5	5825	17380
Reps (GeneID 34542)	DRSC02940	84220	77688	2907	6234
CG7497 (GeneID 39966)	DRSC10857	93944	54619	4378	2073
CG2150 (GeneID 43745)	DRSC15420	1.22e5	4.69e5	4216	14978
CG31007 (GeneID 318553)	DRSC14029	4.36e5	1.79e5	23218	3861
Sar1 (GeneID 42615)	DRSC17049	1.61e5	98116	7450	4152
Shab (GeneID 38352)	DRSC08013	1.19e5	1.88e5	3411	8219
Shab (GeneID 38352)	DRSC08643	61251	26176	2540	2264
Shab (GeneID 38352)	DRSC08699	1.27e5	69408	5056	1163
hng1 (GeneID 37412)	DRSC04555	80812	56088	3410	2311
ASPP (GeneID 37422)	DRSC04305	72283	32951	1946	2941
CG9799 (GeneID 41647)	DRSC16567	95973	48586	4304	1700
CG31751 (GeneID 35118)	DRSC02464	76192	48385	1645	4372
CG31751 (GeneID 35118)	DRSC02465	68163	54792	1638	4123
CG7376 (GeneID 38715)	DRSC10829	73876	1.04e5	3702	4288
GstE3 (GeneID 37108)	DRSC06673	1.01e5	52443	2979	4227
CG34045 (GeneID 3885656)	DRSC05787	1.72e5	3.61e5	5212	16386
tj (GeneID 35227)	DRSC02011	64349	41827	1704	3904
CG14309 (GeneID 42212)	DRSC14788	6.09e5	1.21e5	30419	3132
CG15252 (GeneID 31931)	DRSC17981	59773	1.43e5	1797	5403
